Experimental findings from US20180325909A1, “COMBINATION TREATMENT OF SPECIFIC FORMS OF EPILEPSY” (ZOGENIX INTERNATIONAL LIMITED, priority 2015, published 2018) are described below.

Assay [1] relates to homozygous scn1Lab−/− mutants. More on the design: species or system Danio rerio. The following applies: in vivo. The method, then:
Zebrafish embryos (Danio rerio) heterozygous for the scn1Lab mutation (scn1Lab+/−) were backcrossed with Tupfel longfin wildtype (WT scn1Lab+/+). Adult zebrafish were housed at 28.0° C., on a 14/10 hour light/dark cycle under standard aquaculture conditions. Fertilized eggs were collected via natural spawning. Anaesthetized fish (tricaine 0.02%) were fin-clipped and genotyped by PCR. After genotyping, samples were purified (MinElute PCR Purification Kit) and sequenced by LGC Genomics. Age-matched Tupfel longfin wildtype larvae were used as control group (WT scn1Lab+/+).
To evaluate the locomotor activity of homozygous scn1Lab−/− mutants and control WT scn1Lab+/+, zebrafish larvae were placed in a 96-well plate in 100 μL of embryo medium from 4 to 8 dpf. […] The total distance in large movements was recorded and quantified using ZebraLab™ software (Viewpoint, Lyon, France). […]
Scn1Lab−/− mutants and WT scn1Lab+/+ larvae were arrayed in the same plate and treated at 6 days post fertilization (dpf) with fenfluramine (25 μM), functional analogs (at their MTC) or VHC in individual wells of a 96-well plate. […] Furthermore these larvae were analyzed after more than 22 hours incubation (7 dpf), i.e. long treatment. The total locomotor activity was quantified using the parameter lardist and plotted in cm. […]

The subject of assay [2] is homozygous scn1Lab−/− mutants. Details: species or system Danio rerio. The conditions noted are these: in vivo. How it is done: Epileptiform activity was measured by open-field recordings in the zebrafish larval forebrain at 7 dpf. Homozygous scn1Lab−/− mutants and control WT scn1Lab+/+ were embedded in 2% low-melting-point agarose (Invitrogen) to position a glass electrode into the forebrain. […] Single recordings were performed for 10 min. […] Spontaneous epileptiform events were taken into account when the amplitude exceeded three times the background noise and lasted longer than 50 milliseconds (ms).
Epileptiform activity was measured by open-field recordings in the zebrafish larval forebrain at 7 dpf, as described above. […] Recordings of 7 dpf larvae, from at least 8 scn1Lab−/− mutant larvae were taken per experimental condition. […] Electrographic recordings were quantified for the different treatment conditions.
The source holds these as a separate data set.

`CCN(CC)C(=O)N[C@H]1C=C2c3cccc4[nH]cc(c34)C[C@H]2N(C)C1` [lisuride, 3-[(6aR,9S)-7-methyl-6,6a,8,9-tetrahydro-4H-indolo[4,3-fg]quinoline-9-yl]-1,1-diethylurea]: the “inhibition of locomotor activity in mutant fish embryos (Example 2)” value in assay [1] is listed as “potent inhibitors”. Further, the “inhibition of epileptiform activity in mutant fish embryos (Example 2)” value in assay [2] is on record as “potent inhibitors”.
